Further values from the same series stand in other lists.
Assays:
Assay type in all cases: organism-based
Details in all cases: in vivo, 168 h, time 7 day
[1] = Acute toxicity in Swiss albino mouse assessed as body weight at 50 mg/kg, po measured on day 7 (reference value: 22.75 +/- 0.38 g)
[2] = Acute toxicity in Swiss albino mouse assessed as body weight at 1000 mg/kg, po measured on day 7 (reference value: 22.75 +/- 0.38 g)
[3] = Acute toxicity in Swiss albino mouse assessed as haemoglobin level at 300 mg/kg, po measured after 7 days (reference value: 10.86 +/- 0.87 g/dL)
[4] = Acute toxicity in Swiss albino mouse assessed as RBC count at 5 mg/kg, po measured after 7 days (Rvb =6.0 +/- 0.28 million/mm3)
[5] = Acute toxicity in Swiss albino mouse assessed as RBC count at 1000 mg/kg, po measured after 7 days (Rvb =6.0 +/- 0.28 million/mm3)
[6] = Acute toxicity in Swiss albino mouse assessed as creatinine level at 5 mg/kg, po measured after 7 days (reference value: 0.97 +/- 0.07 mg/dL)
[7] = Acute toxicity in Swiss albino mouse assessed as WBC count per thousand/mm3 at 300 mg/kg, po measured after 7 days (reference value: 6.84 +/- 0.83 /mm3)
[8] = Acute toxicity in Swiss albino mouse assessed as ALKP level at 5 mg/kg, po measured after 7 days (reference value: 379.25 +/- 27.08 U/L)
[9] = Acute toxicity in Swiss albino mouse assessed as ALKP level at 300 mg/kg, po measured after 7 days (reference value: 379.25 +/- 27.08 U/L)
[10] = Acute toxicity in Swiss albino mouse assessed as SGOT level at 300 mg/kg, po measured after 7 days (reference value: 31.99 +/- 3.37 U/L)
[11] = Acute toxicity in Swiss albino mouse assessed as SGPT level at 300 mg/kg, po measured after 7 days (reference value: 14.04 +/- 1.45 U/L)
[12] = Acute toxicity in Swiss albino mouse assessed as SGPT level at 1000 mg/kg, po measured after 7 days (reference value: 14.04 +/- 1.45 U/L)
[13] = Acute toxicity in Swiss albino mouse assessed as albumin level at 300 mg/kg, po measured after 7 days (reference value: 3.24 +/- 0.30 g/dL)
[14] = Acute toxicity in Swiss albino mouse assessed as triglycerides level at 5 mg/kg, po measured after 7 days (reference value: 58.51 +/- 10.82 mg/dL)
[15] = Acute toxicity in Swiss albino mouse assessed as cholesterol level at 5 mg/kg, po measured after 7 days (reference value: 265.76 +/- 24.78 mg/dL)
[16] = Acute toxicity in Swiss albino mouse assessed as cholesterol level at 50 mg/kg, po measured after 7 days (reference value: 265.76 +/- 24.78 mg/dL)
[17] = Acute toxicity in Swiss albino mouse assessed as cholesterol level at 1000 mg/kg, po measured after 7 days (reference value: 265.76 +/- 24.78 mg/dL)
[18] = Acute toxicity in Swiss albino mouse assessed as serum protein level at 300 mg/kg, po measured after 7 days (reference value: 0.66 +/- 0.01 mg/ml)
[19] = Acute toxicity in Swiss albino mouse assessed as serum protein level at 1000 mg/kg, po measured after 7 days (reference value: 0.66 +/- 0.01 mg/ml)
[20] = Acute toxicity in Swiss albino mouse assessed as reduced GSH level at 5 mg/kg, po measured after 7 days (reference value: 18.20 +/- 1.56 ug/mg of protein)
[21] = Acute toxicity in Swiss albino mouse assessed as reduced GSH level at 300 mg/kg, po measured after 7 days (reference value: 18.20 +/- 1.56 ug/mg of protein)
[22] = Acute toxicity in Swiss albino mouse assessed as malondialdehyde level at 300 mg/kg, po measured after 7 days (reference value: 0.14 +/- 0.01 nM/mg)
[23] = Acute toxicity in Swiss albino mouse assessed as neutrophil count at 5 mg/kg, po measured after 7 days (reference value: 41.50 +/- 4.08 %)
[24] = Acute toxicity in Swiss albino mouse assessed as neutrophil count at 50 mg/kg, po measured after 7 days (reference value: 41.50 +/- 4.08 %)
[25] = Acute toxicity in Swiss albino mouse assessed as lymphocyte count at 50 mg/kg, po measured after 7 days (reference value: 37.97 +/- 1.80 %)
[26] = Acute toxicity in Swiss albino mouse assessed as lymphocyte count at 1000 mg/kg, po measured after 7 days (reference value: 37.97 +/- 1.80 %)
[27] = Acute toxicity in Swiss albino mouse assessed as monocyte count at 5 mg/kg, po measured after 7 days (reference value: 12.58 +/- 2.86 %)
[28] = Acute toxicity in Swiss albino mouse assessed as eosinophil count at 300 mg/kg, po measured after 7 days (reference value: 6.34 +/- 1.04 %)
[29] = Acute toxicity in Swiss albino mouse assessed as basophil count at 5 mg/kg, po measured after 7 days (reference value: 1.50 +/- 0.29 %)
[30] = Acute toxicity in Swiss albino mouse assessed as absolute liver weight at 5 mg/kg, po measured after 7 days (reference value: 1.11 +/- 0.04 g)
[31] = Acute toxicity in Swiss albino mouse assessed as absolute liver weight at 300 mg/kg, po measured after 7 days (reference value: 1.11 +/- 0.04 g)
[32] = Acute toxicity in Swiss albino mouse assessed as absolute lung weight at 5 mg/kg, po measured after 7 days (reference value: 0.16 +/- 0.01 g)
[33] = Acute toxicity in Swiss albino mouse assessed as absolute lung weight at 1000 mg/kg, po measured after 7 days (reference value: 0.16 +/- 0.01 g)
[34] = Acute toxicity in Swiss albino mouse assessed as absolute brain weight at 50 mg/kg, po measured after 7 days (reference value: 0.37 +/- 0.02 g)
[35] = Acute toxicity in Swiss albino mouse assessed as absolute brain weight at 300 mg/kg, po measured after 7 days (reference value: 0.37 +/- 0.02 g)
[36] = Acute toxicity in Swiss albino mouse assessed as absolute spleen weight at 50 mg/kg, po measured after 7 days (reference value: 0.17 +/- 0.03 g)
[37] = Acute toxicity in Swiss albino mouse assessed as absolute heart weight at 300 mg/kg, po measured after 7 days (reference value: 0.12 g)
[38] = Acute toxicity in Swiss albino mouse assessed as absolute uterus weight at 1000 mg/kg, po measured after 7 days (reference value: 0.27+/- 0.07 g)
[39] = Acute toxicity in Swiss albino mouse assessed as absolute ovary weight at 50 mg/kg, po measured after 7 days (reference value: 0.04+/- 0.02 g)
[40] = Acute toxicity in Swiss albino mouse assessed as absolute ovary weight at 1000 mg/kg, po measured after 7 days (reference value: 0.04+/- 0.02 g)
[41] = Acute toxicity in Swiss albino mouse assessed as absolute testes weight at 5 mg/kg, po measured after 7 days (reference value: 0.15+/- 0.01 g)
[42] = Acute toxicity in Swiss albino mouse assessed as absolute testes weight at 50 mg/kg, po measured after 7 days (reference value: 0.15+/- 0.01 g)
[43] = Acute toxicity in Swiss albino mouse assessed as absolute testes weight at 1000 mg/kg, po measured after 7 days (reference value: 0.15+/- 0.01 g)
[44] = Acute toxicity in Swiss albino mouse assessed as relative lung weight at 5 mg/kg, po measured after 7 days (reference value: 0.70 +/- 0.08 %)
[45] = Acute toxicity in Swiss albino mouse assessed as relative brain weight at 300 mg/kg, po measured after 7 days (reference value: 1.63 +/- 0.13 %)
[46] = Acute toxicity in Swiss albino mouse assessed as relative brain weight at 1000 mg/kg, po measured after 7 days (reference value: 1.63 +/- 0.13 %)
[47] = Acute toxicity in Swiss albino mouse assessed as relative spleen weight at 50 mg/kg, po measured after 7 days (reference value: 0.73 +/- 0.14 %)
[48] = Acute toxicity in Swiss albino mouse assessed as relative spleen weight at 300 mg/kg, po measured after 7 days (reference value: 0.73 +/- 0.14 %)
[49] = Acute toxicity in Swiss albino mouse assessed as relative kidney weight at 5 mg/kg, po measured after 7 days (reference value: 1.25 +/- 0.08 %)
[50] = Acute toxicity in Swiss albino mouse assessed as relative heart weight at 50 mg/kg, po measured after 7 days (reference value: 0.51 +/- 0.02 %)
[51] = Acute toxicity in Swiss albino mouse assessed as relative heart weight at 300 mg/kg, po measured after 7 days (reference value: 0.51 +/- 0.02 %)
[52] = Acute toxicity in Swiss albino mouse assessed as relative uterus weight at 1000 mg/kg, po measured after 7 days (reference value: 1.63 +/- 0.71 %)
[53] = Acute toxicity in Swiss albino mouse assessed as relative ovary weight at 5 mg/kg, po measured after 7 days (reference value: 0.07 +/- 0.02 %)
[54] = Acute toxicity in Swiss albino mouse assessed as relative testes weight at 50 mg/kg, po measured after 7 days (reference value: 0.62 +/- 0.03 %)
[55] = Acute toxicity in Swiss albino mouse assessed as relative testes weight at 300 mg/kg, po measured after 7 days (reference value: 0.62 +/- 0.03 %)
[56] = Acute toxicity in Swiss albino mouse assessed as relative testes weight at 1000 mg/kg, po measured after 7 days (reference value: 0.62 +/- 0.03 %)

CCCCN(C)C(=O)CCCCOc1ccc([C@H]2c3ccc(OC)cc3OC(C)(C)[C@@H]2c2ccccc2)cc1
Activity [1]: 23.52 g | Activity [2]: 20.3 g | Activity [3]: 12.92 g/dL | Activity [4]: 7.14 million/mm3 | Activity [5]: 6.27 million/mm3 | Activity [6]: 0.78 mg/dL | Activity [7]: 6.59 /mm3 | Activity [8]: 278.7 U/L | Activity [9]: 329.28 U/L | Activity [10]: 42.66 U/L | Activity [11]: 17.6 U/L | Activity [12]: 17.21 U/L | Activity [13]: 3.73 g/dL | Activity [14]: 67.53 mg/dL | Activity [15]: 288.67 mg/dL | Activity [16]: 219.09 mg/dL | Activity [17]: 267.94 mg/dL | Activity [18]: 0.67 mg/mL | Activity [19]: 0.75 mg/mL | Activity [20]: 19.35 µg/mg | Activity [21]: 14.31 µg/mg | Activity [22]: 0.13 nM/mg | Activity [23]: 42.94% | Activity [24]: 44.27% | Activity [25]: 35.79% | Activity [26]: 34.49% | Activity [27]: 8.94% | Activity [28]: 5.27% | Activity [29]: 0.67% | Activity [30]: 1.18 g | Activity [31]: 1.13 g | Activity [32]: 0.15 g | Activity [33]: 0.15 g | Activity [34]: 0.36 g | Activity [35]: 0.35 g | Activity [36]: 0.13 g | Activity [37]: 0.12 g | Activity [38]: 0.38 g | Activity [39]: 0.07 g | Activity [40]: 0.05 g | Activity [41]: 0.15 g | Activity [42]: 0.17 g | Activity [43]: 0.18 g | Activity [44]: 0.61% | Activity [45]: 1.54% | Activity [46]: 1.63% | Activity [47]: 0.55% | Activity [48]: 0.57% | Activity [49]: 1.13% | Activity [50]: 0.5% | Activity [51]: 0.49% | Activity [52]: 1.82% | Activity [53]: 0.2% | Activity [54]: 0.63% | Activity [55]: 0.54% | Activity [56]: 0.88%
